This note sets out measurements from publication PMC7728079.

No constants are given. Whether binding was seen depends on the method and setting. In cells and extracts the contact can be indirect. A result given as binding can be weak or reduced; the word gives no strength.

Experiment [1] addresses Yil102c-A tagged with the myc epitope at the C-terminus (S. cerevisiae). The experiment is described as follows: co-IP; myc-tagged Yil102c-A trapped on Myc-Trap Agarose beads from yeast cell-free extract (500 ug protein), 4 °C, 24 h; Dpm1 and Spt14 detected by immunoblot; expression induced with galactose (C-terminal tag) or 0.2 mM CuSO4 (N-terminal tag).
Experiment [2] deals with Yil102c-A tagged with the myc epitope at the N-terminus (S. cerevisiae). Described as above.

B1: Dpm1 (protein, UniProt P14020 1-267)
chain: MSIEYSVIVPAYHEKLNIKPLTTRLFAGMSPEMAKKTELIFVDDNSQDGSVEEVDALAHQGYNVRIIVRTNERGLSSAVLKGFYEAKGQYLVCMDADLQHPPETVPKLFESLHDHAFTLGTRYAPGVGIDKDWPMYRRVISSTARMMARPLTIASDPMSGFFGLQKKYLENCNPRDINSQGFKIALELLAKLPLPRDPRVAIGEVPFTFGVRTEGESKLSGKVIIQYLQQLKELYVFKFGANNLILFITFWSILFFYVCYQLYHLVF
Take B1: in experiment [1], the binding result is reported as “binds”.

B2: Spt14 (protein, UniProt P32363 1-452)
chain: MGFNIAMLCDFFYPQLGGVEFHIYHLSQKLIDLGHSVVIITHAYKDRVGVRHLTNGLKVYHVPFFVIFRETTFPTVFSTFPIIRNILLREQIQIVHSHGSASTFAHEGILHANTMGLRTVFTDHSLYGFNNLTSIWVNKLLTFTLTNIDRVICVSNTCKENMIVRTELSPDIISVIPNAVVSEDFKPRDPTGGTKRKQSRDKIVIVVIGRLFPNKGSDLLTRIIPKVCSSHEDVEFIVAGDGPKFIDFQQMIESHRLQKRVQLLGSVPHEKVRDVLCQGDIYLHASLTEAFGTILVEAASCNLLIVTTQVGGIPEVLPNEMTVYAEQTSVSDLVQATNKAINIIRSKALDTSSFHDSVSKMYDWMDVAKRTVEIYTNISSTSSADDKDWMKMVANLYKRDGIWAKHLYLLCGIVEYMLFFLLEWLYPRDEIDLAPKWPKKTVSNETKEARET
B2: the binding result in experiment [1] was “no binding”; in experiment [2] it was “binds”.
